# Counter-ions that a name gives are not always drawn. For at least one compound, name, drawing or mass did not settle the structure.
# System: influenza virus, Adachi strain of A2-type
# Assay type: cell-based
compound,measurement,value
"NC12CC3CC(CC(C3)C1)C2 [Am, Adamantaneamine Hydrochloride, reference compound]",virucidal activity,absence of virucidal activity

# From patent US4598095A (priority 1982, dated 1986)
